# Assay results reported in patent publication US20120129757A1, “COMPOSITIONS AND METHODS FOR PROMOTING VASCULAR BARRIER FUNCTION AND TREATING PULONARY FIBROSIS” (priority 2008, published 2012).
# These are yes or no findings as the source states them, for the method shown. In cells and extracts the contact can be indirect. Some binding calls cover weakened binding; strength is not graded here.
# T1: vascular endothelial cadherin (VE-cadherin) (human) (UniProt P33151)
# T1 sequence (looked up): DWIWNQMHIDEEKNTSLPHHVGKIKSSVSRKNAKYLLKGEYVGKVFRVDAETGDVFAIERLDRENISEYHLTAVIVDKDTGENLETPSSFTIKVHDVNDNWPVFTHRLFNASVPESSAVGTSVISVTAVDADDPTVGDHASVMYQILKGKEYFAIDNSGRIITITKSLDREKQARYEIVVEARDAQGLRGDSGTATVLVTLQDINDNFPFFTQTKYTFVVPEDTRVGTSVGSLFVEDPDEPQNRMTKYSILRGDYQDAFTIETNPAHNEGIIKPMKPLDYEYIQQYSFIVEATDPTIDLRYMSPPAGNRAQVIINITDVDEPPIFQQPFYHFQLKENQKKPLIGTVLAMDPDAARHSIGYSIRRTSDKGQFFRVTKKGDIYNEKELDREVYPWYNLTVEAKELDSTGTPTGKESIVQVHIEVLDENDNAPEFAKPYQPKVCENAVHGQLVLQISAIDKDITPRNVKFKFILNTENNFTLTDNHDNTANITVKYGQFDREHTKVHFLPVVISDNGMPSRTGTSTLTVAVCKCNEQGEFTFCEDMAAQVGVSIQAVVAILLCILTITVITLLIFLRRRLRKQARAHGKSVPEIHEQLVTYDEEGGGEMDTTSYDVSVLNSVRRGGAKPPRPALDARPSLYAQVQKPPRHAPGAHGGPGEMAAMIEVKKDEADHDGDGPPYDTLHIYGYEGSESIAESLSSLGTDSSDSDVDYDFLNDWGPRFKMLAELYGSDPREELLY
# Key:
# [1] = biological target: T1, vascular endothelial cadherin (VE-cadherin) (human); assay: co-immunoprecipitation from HMVEC-lung lysates: IP for VE-cadherin, immunoblot for p120-catenin; IL-1β stimulation with Mock or Slit2N
# [2] = biological target: T1, vascular endothelial cadherin (VE-cadherin) (human); assay: co-immunoprecipitation from HMVEC-lung lysates: IP for VE-cadherin, immunoblot for p120-catenin and VE-cadherin
binder,measurement,setting,value
"p120-catenin (protein, human, UniProt O60716 1-968, looked up) MDDSEVESTASILASVKEQEAQFEKLTRALEEERRHVSAQLERVRVSPQDANPLMANGTLTRRHQNGRFVGDADLERQKFSDLKLNGPQDHSHLLYSTIPRMQEPGQIVETYTEEDPEGAMSVVSVETSDDGTTRRTETTVKKVVKTVTTRTVQPVAMGPDGLPVDASSVSNNYIQTLGRDFRKNGNGGPGPYVGQAGTATLPRNFHYPPDGYSRHYEDGYPGGSDNYGSLSRVTRIEERYRPSMEGYRAPSRQDVYGPQPQVRVGGSSVDLHRFHPEPYGLEDDQRSMGYDDLDYGMMSDYGTARRTGTPSDPRRRLRSYEDMIGEEVPSDQYYWAPLAQHERGSLASLDSLRKGGPPPPNWRQPELPEVIAMLGFRLDAVKSNAAAYLQHLCYRNDKVKTDVRKLKGIPVLVGLLDHPKKEVHLGACGALKNISFGRDQDNKIAIKNCDGVPALVRLLRKARDMDLTEVITGTLWNLSSHDSIKMEIVDHALHALTDEVIIPHSGWEREPNEDCKPRHIEWESVLTNTAGCLRNVSSERSEARRKLRECDGLVDALIFIVQAEIGQKDSDSKLVENCVCLLRNLSYQVHREIPQAERYQEAAPNVANNTGPHAASCFGAKKGKDEWFSRGKKPIEDPANDTVDFPKRTSPARGYELLFQPEVVRIYISLLKESKTPAILEASAGAIQNLCAGRWTYGRYIRSALRQEKALSAIADLLTNEHERVVKAASGALRNLAVDARNKELIGKHAIPNLVKNLPGGQQNSSWNFSEDTVISILNTINEVIAENLEAAKKLRETQGIEKLVLINKSGNRSEKEVRAAALVLQTIWGYKELRKPLEKEGWKKSDFQVNLNNASRSQSSHSYDDSTLPLIDRNQKSDKKPDREEIQMSNMGSNTKSLDNNYSTPNERGDHNRTLDRSGDLGDMEPLKGTTPLMQDEGQESLEEELDVLVLDDEGGQVSYPSMQKI",binding,[1],binds
same,binding,[2],binds
